From patent US20150376252A1
Results are given in words; binding and its absence hold for the method and conditions named. Binding calls can cover weak binding; strength is not graded here. Tags and fused reporters may be left off the sequences shown.

Biological target: Fz4-YN/Fz4-YC
Assay: three-component split-YFP BRET in transfected COS-1 cells

binding: binds
B1: Tspan12-Rlu (human Tspan12 with Renilla luciferase at the C-terminus) (protein, UniProt O95859 1-305, looked up, not shown: large carriers)
chain: MAREDSVKCLRCLLYALNLLFWLMSISVLAVSAWMRDYLNNVLTLTAETRVEEAVILTYFPVVHPVMIAVCCFLIIVGMLGYCGTVKRNLLLLAWYFGSLLVIFCVELACGVWTYEQELMVPVQWSDMVTLKARMTNYGLPRYRWLTHAWNFFQREFKCCGVVYFTDWLEMTEMDWPPDSCCVREFPGCSKQAHQEDLSDLYQEGCGKKMYSFLRGTKQLQVLRFLGISIGVTQILAMILTITLLWALYYDRREPGTDQMMSLKNDNSQHLSCPSVELLKPSLSRIFEHTSMANSFNTHFEMEEL
